# Laboratory results: the supplement of paper PMC4604168 (melanoma cell lines)
# This is one part of the list. Repeats are few or missing, and single values can be far off.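 Cells were imaged in 1,536-well plates, and nuclei stained with an antibody against cleaved PARP were counted against all DNA-stained nuclei to give the apoptosis fraction. Screening doses were chosen to leave most cells alive, and resting and induced cleaved-PARP levels differ strongly between cell lines.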
# Columns and labels:
# Test in all cases: cleaved PARP positive nuclei fraction relative to DMSO control; melanoma cells; higher = more apoptosis
# Settings in all cases: library dose: low library concentration; 72 h
# CBRC034 = test system: CBRC034 (line from a melanoma biopsy)
# COLO792 = test system: COLO792
# COLO800 = test system: COLO800
# COLO829 = test system: COLO829
# G361 = test system: G361
# IPC-298 = test system: IPC-298
# IST-MEL1 = test system: IST-MEL1
# LB2518-MEL = test system: LB2518-MEL
# LOXIMVI = test system: LOXIMVI
Structure (SMILES),cleaved PARP positive nuclei fraction (CBRC034),cleaved PARP positive nuclei fraction (COLO792),cleaved PARP positive nuclei fraction (COLO800),cleaved PARP positive nuclei fraction (COLO829),cleaved PARP positive nuclei fraction (G361),cleaved PARP positive nuclei fraction (IPC-298),cleaved PARP positive nuclei fraction (IST-MEL1),cleaved PARP positive nuclei fraction (LB2518-MEL),cleaved PARP positive nuclei fraction (LOXIMVI)
"COC(=O)c1sccc1S(=O)(=O)Nc1ccc(Nc2ccccc2)cc1OC + COc1ccc2c(c1)CCC1C2CCC2(C)C(NCCCCCCN3C(=O)C=CC3=O)CCC12 [U73122] (first compound 1 µM, partner dose 0.4 µM)",83.4%,150%,100%,91.3%,102%,41.6%,45.8%,82.7%,49.1%
"O=C1NC(=O)/C(=C/c2ccc(-c3ccc(F)cc3O)o2)S1 + O=c1cc(-c2cccc3c2Sc2ccccc2S3)oc(N2CCOCC2)c1 [KU55933] (first compound 1 µM, partner dose 1 µM)",262%,126%,128%,101%,144%,64.6%,80.2%,79.7%,61.2%
"COc1cc2ncnc(Nc3ccc(Oc4ccccc4)cc3)c2cc1OC + O=c1cc(-c2cccc3c2Sc2ccccc2S3)oc(N2CCOCC2)c1 [KU55933] (first compound 2 µM, partner dose 1 µM)",78.3%,107%,111%,69.5%,44.2%,62.3%,172%,38.9%,130%
"O=C(O)c1ccc(-c2c[nH]c3ncc(-c4ccccc4)cc23)cc1C1CCCC1 + Cc1cc([N+](=O)[O-])ccc1NS(=O)(=O)c1cc(Cl)ccc1Cl [FH535] (first compound 0.16 µM, partner dose 1 µM)",695%,163%,124%,90.7%,168%,41.3%,128%,104%,44.2%
"COC(=O)c1sccc1S(=O)(=O)Nc1ccc(Nc2ccccc2)cc1OC + O=C1NC(=O)/C(=C/c2ccc(-c3ccc(F)cc3O)o2)S1 [AS252424] (first compound 1 µM, partner dose 1 µM)",92.5%,48.3%,44.1%,118%,61.7%,53.5%,129%,182%,56.9%
"CCN(CC)CCCCNc1ncc2cc(-c3cc(OC)cc(OC)c3)c(NC(=O)NC(C)(C)C)nc2n1 + O=c1cc(-c2cccc3c2Sc2ccccc2S3)oc(N2CCOCC2)c1 [KU55933] (first compound 0.1 µM, partner dose 1 µM)",38.6%,136%,200%,227%,128%,159%,131%,81.6%,52%
"COC(=O)c1sccc1S(=O)(=O)Nc1ccc(Nc2ccccc2)cc1OC + Oc1nc(-c2ccc(C(F)(F)F)cc2)nc2c1CSCC2 [XAV939] (first compound 1 µM, partner dose 2 µM)",49.4%,127%,49.4%,148%,114%,55.1%,29.6%,88.3%,104%
"O=S(=O)(c1ccccc1)N(CC(F)(F)F)c1ccc(C(O)(C(F)(F)F)C(F)(F)F)cc1 + CC(C)CCN1c2nc(Nc3cc(F)c(O)c(F)c3)ncc2N(C)C(=O)C1C [BID1870] (first compound 1.4 µM, partner dose 0.2 µM)",73.1%,77.5%,142%,137%,72.4%,97.9%,170%,154%,73.6%
"CN(NC(=O)CC(=O)NN(C)C(=S)c1ccccc1)C(=S)c1ccccc1 + O=S(=O)(c1ccccc1)N(CC(F)(F)F)c1ccc(C(O)(C(F)(F)F)C(F)(F)F)cc1 [T0901317] (first compound 0.006 µM, partner dose 1.4 µM)",85.1%,105%,623%,175%,76.3%,146%,59.5%,245%,136%
"CN(NC(=O)CC(=O)NN(C)C(=S)c1ccccc1)C(=S)c1ccccc1 + O=C(O)C(=O)Nc1sc2c(c1C(=O)O)CCNC2 [TCS401] (first compound 0.006 µM, partner dose 1.66667 µM)",141%,86.8%,314%,156%,124%,127%,51%,85.4%,54.9%
"CCN(CC)CCCCNc1ncc2cc(-c3cc(OC)cc(OC)c3)c(NC(=O)NC(C)(C)C)nc2n1 + CCCCCCCCCCCC1=C(O)C(=O)C=C(O)C1=O [Embelin] (first compound 0.1 µM, partner dose 1.2 µM)",381%,88.2%,165%,84.4%,92.5%,112%,88.5%,92%,28.1%
"COc1ccc2c(c1)CCC1C2CCC2(C)C(NCCCCCCN3C(=O)C=CC3=O)CCC12 (stereo not given) + COc1ccc(COc2ccc(Cc3cnc(N)nc3N)cc2OC)cc1 [GW2580] (first compound 0.4 µM, partner dose 1 µM)",97.5%,127%,78%,121%,129%,113%,147%,275%,103%
"NCC(=O)Nc1ccc(-n2nc(C(F)(F)F)cc2-c2ccc3c(ccc4ccccc43)c2)cc1 + COC(=O)c1sccc1S(=O)(=O)Nc1ccc(Nc2ccccc2)cc1OC [GSK0660] (first compound 1 µM, partner dose 1 µM)",197%,86.2%,74.7%,160%,25.7%,85.6%,120%,80.9%,34.7%
"CCN(CC)CCCCNc1ncc2cc(-c3cc(OC)cc(OC)c3)c(NC(=O)NC(C)(C)C)nc2n1 + Oc1nc(-c2ccc(C(F)(F)F)cc2)nc2c1CSCC2 [XAV939] (first compound 0.1 µM, partner dose 2 µM)",236%,150%,38.7%,62.9%,122%,116%,96.2%,82.5%,66.8%
"CN(NC(=O)CC(=O)NN(C)C(=S)c1ccccc1)C(=S)c1ccccc1 + Oc1nc(-c2ccc(C(F)(F)F)cc2)nc2c1CSCC2 [XAV939] (first compound 0.006 µM, partner dose 2 µM)",62%,122%,311%,189%,62.1%,65%,141%,278%,48.9%
"CN(C)S(=O)(=O)c1ccc2c(c1)/C(=C/c1cc3c([nH]1)CCCC3)C(=O)N2 + COc1cc(N2CCC(N3CCN(C)CC3)CC2)ccc1Nc1ncc(Cl)c(Nc2ccccc2S(=O)(=O)C(C)C)n1 [NVP-TAE684] (first compound 0.4 µM, partner dose 0.08 µM)",43.4%,259%,93.3%,113%,150%,89.2%,131%,84.4%,118%
"COc1ccc(COc2ccc(Cc3cnc(N)nc3N)cc2OC)cc1 + Oc1cc(-c2nc(-c3ccccc3)[nH]c2-c2ccncc2)ccc1Cl [L779450] (first compound 1 µM, partner dose 0.2 µM)",119%,244%,201%,39.9%,122%,39.6%,76.9%,84.5%,71.1%
"COc1ccc(COc2ccc(Cc3cnc(N)nc3N)cc2OC)cc1 + CC(C)CCN1c2nc(Nc3cc(F)c(O)c(F)c3)ncc2N(C)C(=O)C1C [BID1870] (first compound 1 µM, partner dose 0.2 µM)",39.1%,14.5%,131%,182%,119%,82.8%,39.3%,98.7%,28.8%
"CCc1ccc(CCOc2ccc(CC3SC(=O)NC3=O)cc2)nc1 (stereo not given) [pioglitazone] + CCN(CC)CCCCNc1ncc2cc(-c3cc(OC)cc(OC)c3)c(NC(=O)NC(C)(C)C)nc2n1 [PD173074] (first compound 2 µM, partner dose 0.1 µM)",43.1%,70.4%,13.4%,128%,153%,41.4%,115%,92.3%,26.1%
"COC(=O)c1sccc1S(=O)(=O)Nc1ccc(Nc2ccccc2)cc1OC + O=S(=O)(c1ccccc1)N(CC(F)(F)F)c1ccc(C(O)(C(F)(F)F)C(F)(F)F)cc1 [T0901317] (first compound 1 µM, partner dose 1.4 µM)",93.4%,147%,19.1%,69%,25.9%,119%,83.8%,84.5%,143%
"COc1cc2ncnc(Nc3ccc(Oc4ccccc4)cc3)c2cc1OC + O=C(O)C(=O)Nc1sc2c(c1C(=O)O)CCNC2 [TCS401] (first compound 2 µM, partner dose 1.66667 µM)",212%,87.4%,91.1%,83.6%,87.1%,199%,97.2%,54.9%,98.1%
"CN(C)S(=O)(=O)c1ccc2c(c1)/C(=C/c1cc3c([nH]1)CCCC3)C(=O)N2 + c1cc(-c2cnn3cc(-c4ccc(OCCN5CCCCC5)cc4)cnc23)ccn1 [Dorsomorphin] (first compound 0.4 µM, partner dose 0.4 µM)",105%,50.7%,158%,117%,198%,43.7%,86%,84.9%,62.4%
"CN(C)S(=O)(=O)c1ccc2c(c1)/C(=C/c1cc3c([nH]1)CCCC3)C(=O)N2 + O=S(=O)(c1ccccc1)N(CC(F)(F)F)c1ccc(C(O)(C(F)(F)F)C(F)(F)F)cc1 [T0901317] (first compound 0.4 µM, partner dose 1.4 µM)",99.7%,39%,43.9%,173%,149%,216%,93%,257%,42%
"NCC(=O)Nc1ccc(-n2nc(C(F)(F)F)cc2-c2ccc3c(ccc4ccccc43)c2)cc1 + Oc1nc(-c2ccc(C(F)(F)F)cc2)nc2c1CSCC2 [XAV939] (first compound 1 µM, partner dose 2 µM)",89.8%,74.5%,67.5%,63.4%,40%,132%,118%,165%,30.5%
"COc1ccc(-c2ccc3c(N4CCOCC4)nc(N4C[C@@H](C)O[C@@H](C)C4)nc3n2)cc1CO + Oc1cc(-c2nc(-c3ccccc3)[nH]c2-c2ccncc2)ccc1Cl [L779450] (first compound 0.02 µM, partner dose 0.2 µM)",181%,185%,57.4%,81.2%,100%,153%,85.8%,99.6%,92.6%

# Already shown: entries from further up.
Structure (SMILES),cleaved PARP positive nuclei fraction (CBRC034),cleaved PARP positive nuclei fraction (COLO792),cleaved PARP positive nuclei fraction (COLO800),cleaved PARP positive nuclei fraction (COLO829),cleaved PARP positive nuclei fraction (G361),cleaved PARP positive nuclei fraction (IPC-298),cleaved PARP positive nuclei fraction (IST-MEL1),cleaved PARP positive nuclei fraction (LB2518-MEL),cleaved PARP positive nuclei fraction (LOXIMVI)
"COc1cc2ncnc(Nc3ccc(Oc4ccccc4)cc3)c2cc1OC + O=c1cc(-c2cccc3c2Sc2ccccc2S3)oc(N2CCOCC2)c1 [KU55933] (first compound 2 µM, partner dose 1 µM)",78.3%,107%,111%,69.5%,44.2%,62.3%,172%,38.9%,130%
"O=C(O)c1ccc(-c2c[nH]c3ncc(-c4ccccc4)cc23)cc1C1CCCC1 + Cc1cc([N+](=O)[O-])ccc1NS(=O)(=O)c1cc(Cl)ccc1Cl [FH535] (first compound 0.16 µM, partner dose 1 µM)",695%,163%,124%,90.7%,168%,41.3%,128%,104%,44.2%
